Reference: publication PMC9782470 (Pharmaceuticals, 2022)

Assay: peptide synthesis
Conditions: conjugation step

c(RGDfK)-Cy5
conjugation yield: 59%
